According to the supplement of paper PMC12067093, “Discovery and optimisation of a covalent ligand for TRIM25 and its application to targeted protein ubiquitination” (Chemical Science, 2025):
The other results are listed elsewhere or left out.

Sequences of proteins named here, by UniProt entry; tags and fusion partners are left off. A change or cut given only in a name is not applied to a line headed by its entry.
UniProt Q9NSD9: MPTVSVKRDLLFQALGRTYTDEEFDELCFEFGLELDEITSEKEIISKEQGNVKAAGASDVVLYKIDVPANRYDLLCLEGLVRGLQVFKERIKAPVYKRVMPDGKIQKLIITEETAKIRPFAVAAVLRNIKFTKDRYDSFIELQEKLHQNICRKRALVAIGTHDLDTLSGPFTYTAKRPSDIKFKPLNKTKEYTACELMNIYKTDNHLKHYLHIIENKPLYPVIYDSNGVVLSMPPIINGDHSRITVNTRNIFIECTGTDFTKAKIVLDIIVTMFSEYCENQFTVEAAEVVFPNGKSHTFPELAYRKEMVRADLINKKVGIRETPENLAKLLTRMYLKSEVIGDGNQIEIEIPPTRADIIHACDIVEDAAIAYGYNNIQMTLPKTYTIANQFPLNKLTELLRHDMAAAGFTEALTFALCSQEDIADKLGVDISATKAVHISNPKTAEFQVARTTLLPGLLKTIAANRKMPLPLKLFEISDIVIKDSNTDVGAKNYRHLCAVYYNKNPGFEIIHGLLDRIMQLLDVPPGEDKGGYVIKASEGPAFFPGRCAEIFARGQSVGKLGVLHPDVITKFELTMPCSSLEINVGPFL
UniProt P09467: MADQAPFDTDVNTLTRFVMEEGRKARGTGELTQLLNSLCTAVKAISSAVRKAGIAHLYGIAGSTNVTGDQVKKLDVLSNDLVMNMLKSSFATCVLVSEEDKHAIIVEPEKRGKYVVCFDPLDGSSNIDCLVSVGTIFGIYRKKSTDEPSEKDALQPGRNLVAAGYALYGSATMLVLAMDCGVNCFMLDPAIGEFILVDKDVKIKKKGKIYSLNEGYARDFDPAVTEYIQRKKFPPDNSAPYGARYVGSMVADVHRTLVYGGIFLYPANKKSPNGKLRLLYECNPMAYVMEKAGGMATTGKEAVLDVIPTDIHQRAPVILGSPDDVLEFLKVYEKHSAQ
UniProt O14526: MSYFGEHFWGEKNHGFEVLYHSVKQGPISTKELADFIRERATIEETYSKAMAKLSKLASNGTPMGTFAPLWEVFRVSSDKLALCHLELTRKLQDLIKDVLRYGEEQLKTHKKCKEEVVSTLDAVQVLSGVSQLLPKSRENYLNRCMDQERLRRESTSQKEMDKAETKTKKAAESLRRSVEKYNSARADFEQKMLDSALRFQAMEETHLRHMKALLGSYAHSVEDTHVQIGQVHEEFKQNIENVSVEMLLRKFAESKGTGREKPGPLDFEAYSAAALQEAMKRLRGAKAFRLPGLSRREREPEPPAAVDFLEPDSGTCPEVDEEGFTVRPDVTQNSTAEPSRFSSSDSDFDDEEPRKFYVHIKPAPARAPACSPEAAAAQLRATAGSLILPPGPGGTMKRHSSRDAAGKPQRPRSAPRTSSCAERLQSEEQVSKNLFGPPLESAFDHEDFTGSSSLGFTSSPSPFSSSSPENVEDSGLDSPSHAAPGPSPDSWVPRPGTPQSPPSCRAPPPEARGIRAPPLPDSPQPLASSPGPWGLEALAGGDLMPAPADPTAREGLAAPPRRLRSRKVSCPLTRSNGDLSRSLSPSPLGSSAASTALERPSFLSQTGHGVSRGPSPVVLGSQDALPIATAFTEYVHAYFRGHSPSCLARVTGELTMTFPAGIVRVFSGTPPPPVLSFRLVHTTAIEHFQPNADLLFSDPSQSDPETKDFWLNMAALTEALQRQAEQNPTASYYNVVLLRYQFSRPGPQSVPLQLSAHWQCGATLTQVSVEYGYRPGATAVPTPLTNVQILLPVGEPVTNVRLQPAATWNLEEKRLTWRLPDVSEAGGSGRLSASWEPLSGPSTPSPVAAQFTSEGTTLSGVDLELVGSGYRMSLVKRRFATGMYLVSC
UniProt Q17RN3: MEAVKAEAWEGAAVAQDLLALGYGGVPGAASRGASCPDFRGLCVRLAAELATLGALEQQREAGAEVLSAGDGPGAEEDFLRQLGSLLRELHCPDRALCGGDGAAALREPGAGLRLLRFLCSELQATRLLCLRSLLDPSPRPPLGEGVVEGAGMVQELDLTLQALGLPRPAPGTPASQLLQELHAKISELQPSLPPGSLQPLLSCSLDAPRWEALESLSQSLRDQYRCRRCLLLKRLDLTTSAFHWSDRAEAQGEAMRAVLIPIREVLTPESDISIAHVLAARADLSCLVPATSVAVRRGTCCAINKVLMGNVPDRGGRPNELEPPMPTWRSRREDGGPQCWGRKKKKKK
UniProt Q9NXK8: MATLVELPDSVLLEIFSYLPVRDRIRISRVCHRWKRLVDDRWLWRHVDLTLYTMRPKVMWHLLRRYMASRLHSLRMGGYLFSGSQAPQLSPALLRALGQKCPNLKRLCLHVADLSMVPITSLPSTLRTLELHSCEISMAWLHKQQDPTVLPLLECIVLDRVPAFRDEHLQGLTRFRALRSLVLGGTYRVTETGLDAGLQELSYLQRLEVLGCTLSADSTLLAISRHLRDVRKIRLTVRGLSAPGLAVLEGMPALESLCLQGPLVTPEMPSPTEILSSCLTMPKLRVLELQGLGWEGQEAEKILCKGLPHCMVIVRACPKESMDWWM
UniProt Q9NX38: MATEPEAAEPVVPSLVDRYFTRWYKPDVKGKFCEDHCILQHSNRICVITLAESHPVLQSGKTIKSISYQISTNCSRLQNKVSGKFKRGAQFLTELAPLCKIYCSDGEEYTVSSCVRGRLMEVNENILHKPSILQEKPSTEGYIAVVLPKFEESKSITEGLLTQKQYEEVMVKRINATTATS
UniProt P22570: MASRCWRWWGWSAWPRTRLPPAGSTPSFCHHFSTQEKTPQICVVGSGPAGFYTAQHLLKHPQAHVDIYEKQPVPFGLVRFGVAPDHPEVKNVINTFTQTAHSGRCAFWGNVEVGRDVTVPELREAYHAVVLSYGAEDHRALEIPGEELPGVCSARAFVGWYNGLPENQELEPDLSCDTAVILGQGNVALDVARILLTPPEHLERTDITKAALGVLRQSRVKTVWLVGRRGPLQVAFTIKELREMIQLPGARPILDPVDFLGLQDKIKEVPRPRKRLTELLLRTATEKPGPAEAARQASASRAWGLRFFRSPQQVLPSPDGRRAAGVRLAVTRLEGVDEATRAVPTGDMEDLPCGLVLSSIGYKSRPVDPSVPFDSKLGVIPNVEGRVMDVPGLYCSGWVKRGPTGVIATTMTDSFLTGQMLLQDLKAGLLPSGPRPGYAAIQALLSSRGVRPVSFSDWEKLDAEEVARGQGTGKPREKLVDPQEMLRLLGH
UniProt Q9BXW9: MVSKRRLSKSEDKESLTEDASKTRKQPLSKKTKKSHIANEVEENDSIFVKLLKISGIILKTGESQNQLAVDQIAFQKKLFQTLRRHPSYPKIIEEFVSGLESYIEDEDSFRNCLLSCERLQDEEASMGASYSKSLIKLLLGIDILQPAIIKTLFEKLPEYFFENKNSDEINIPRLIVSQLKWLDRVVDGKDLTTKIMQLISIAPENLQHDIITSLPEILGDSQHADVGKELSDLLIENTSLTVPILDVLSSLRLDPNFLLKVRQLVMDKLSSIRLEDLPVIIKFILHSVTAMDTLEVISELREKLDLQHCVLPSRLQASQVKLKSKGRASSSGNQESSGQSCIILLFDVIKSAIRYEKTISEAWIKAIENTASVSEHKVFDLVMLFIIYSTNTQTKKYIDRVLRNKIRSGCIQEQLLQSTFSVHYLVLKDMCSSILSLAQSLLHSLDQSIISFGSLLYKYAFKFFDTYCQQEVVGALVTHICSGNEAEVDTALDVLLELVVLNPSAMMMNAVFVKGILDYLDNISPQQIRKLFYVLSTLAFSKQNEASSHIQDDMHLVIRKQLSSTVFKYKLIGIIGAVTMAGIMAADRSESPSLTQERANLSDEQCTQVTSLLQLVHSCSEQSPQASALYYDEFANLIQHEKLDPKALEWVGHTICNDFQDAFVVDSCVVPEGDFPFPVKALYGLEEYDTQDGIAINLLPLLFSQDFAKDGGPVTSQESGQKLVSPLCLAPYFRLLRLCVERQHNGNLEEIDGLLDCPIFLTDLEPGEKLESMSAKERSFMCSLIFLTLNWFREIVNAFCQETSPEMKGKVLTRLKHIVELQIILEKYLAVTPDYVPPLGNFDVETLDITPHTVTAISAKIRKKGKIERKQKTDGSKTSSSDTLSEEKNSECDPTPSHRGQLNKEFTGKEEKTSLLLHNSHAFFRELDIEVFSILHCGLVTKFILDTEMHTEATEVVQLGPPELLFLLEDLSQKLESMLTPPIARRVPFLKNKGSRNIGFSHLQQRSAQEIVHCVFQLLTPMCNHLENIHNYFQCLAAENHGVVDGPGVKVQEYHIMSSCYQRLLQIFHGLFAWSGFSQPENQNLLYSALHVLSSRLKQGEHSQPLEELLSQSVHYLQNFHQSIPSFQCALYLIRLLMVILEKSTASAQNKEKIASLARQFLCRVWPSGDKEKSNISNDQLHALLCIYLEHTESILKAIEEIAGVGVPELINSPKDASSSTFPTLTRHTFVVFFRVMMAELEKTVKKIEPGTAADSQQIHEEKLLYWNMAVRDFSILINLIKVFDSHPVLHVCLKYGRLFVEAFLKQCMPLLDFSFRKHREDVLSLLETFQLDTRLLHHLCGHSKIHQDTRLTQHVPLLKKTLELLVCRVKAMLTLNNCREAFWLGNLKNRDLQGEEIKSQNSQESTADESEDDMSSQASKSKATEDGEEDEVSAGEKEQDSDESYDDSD
UniProt Q96ME1: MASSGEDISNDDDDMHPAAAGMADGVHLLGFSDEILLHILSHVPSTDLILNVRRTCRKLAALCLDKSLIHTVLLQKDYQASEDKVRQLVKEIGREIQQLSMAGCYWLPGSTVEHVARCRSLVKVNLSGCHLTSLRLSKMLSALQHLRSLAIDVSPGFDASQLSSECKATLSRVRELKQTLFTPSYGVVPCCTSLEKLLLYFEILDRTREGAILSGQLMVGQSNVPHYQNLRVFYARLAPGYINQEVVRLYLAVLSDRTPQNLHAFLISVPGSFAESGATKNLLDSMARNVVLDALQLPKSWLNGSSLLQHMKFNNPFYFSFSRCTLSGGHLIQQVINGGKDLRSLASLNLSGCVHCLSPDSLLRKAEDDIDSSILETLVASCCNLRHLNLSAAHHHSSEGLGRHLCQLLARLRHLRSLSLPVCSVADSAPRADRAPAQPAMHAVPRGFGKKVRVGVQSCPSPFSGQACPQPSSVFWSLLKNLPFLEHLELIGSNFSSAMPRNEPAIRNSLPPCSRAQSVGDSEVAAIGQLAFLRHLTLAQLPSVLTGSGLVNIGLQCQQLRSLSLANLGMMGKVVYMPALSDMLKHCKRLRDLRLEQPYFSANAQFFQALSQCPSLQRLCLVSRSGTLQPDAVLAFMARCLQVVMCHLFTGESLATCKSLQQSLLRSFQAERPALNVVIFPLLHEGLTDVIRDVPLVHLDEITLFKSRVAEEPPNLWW
UniProt P23142: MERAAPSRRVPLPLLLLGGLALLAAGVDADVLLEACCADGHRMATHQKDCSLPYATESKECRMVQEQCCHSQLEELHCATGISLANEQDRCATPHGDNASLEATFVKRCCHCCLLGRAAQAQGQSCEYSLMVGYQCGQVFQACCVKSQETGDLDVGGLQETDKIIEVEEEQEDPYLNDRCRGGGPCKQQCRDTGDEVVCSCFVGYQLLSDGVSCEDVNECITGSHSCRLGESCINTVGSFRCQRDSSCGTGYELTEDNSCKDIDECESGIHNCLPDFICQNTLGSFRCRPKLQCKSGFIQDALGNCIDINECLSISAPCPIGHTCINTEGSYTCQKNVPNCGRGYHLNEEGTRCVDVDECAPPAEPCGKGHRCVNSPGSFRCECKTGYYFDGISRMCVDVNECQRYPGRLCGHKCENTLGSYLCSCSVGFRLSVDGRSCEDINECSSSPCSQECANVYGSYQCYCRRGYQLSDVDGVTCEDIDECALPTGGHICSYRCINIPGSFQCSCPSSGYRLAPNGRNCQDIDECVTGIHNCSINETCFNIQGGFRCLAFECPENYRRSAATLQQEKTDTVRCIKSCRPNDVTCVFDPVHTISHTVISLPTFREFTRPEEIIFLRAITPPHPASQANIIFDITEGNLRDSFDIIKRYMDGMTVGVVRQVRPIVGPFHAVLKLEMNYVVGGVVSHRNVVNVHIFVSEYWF
UniProt Q9UKB1: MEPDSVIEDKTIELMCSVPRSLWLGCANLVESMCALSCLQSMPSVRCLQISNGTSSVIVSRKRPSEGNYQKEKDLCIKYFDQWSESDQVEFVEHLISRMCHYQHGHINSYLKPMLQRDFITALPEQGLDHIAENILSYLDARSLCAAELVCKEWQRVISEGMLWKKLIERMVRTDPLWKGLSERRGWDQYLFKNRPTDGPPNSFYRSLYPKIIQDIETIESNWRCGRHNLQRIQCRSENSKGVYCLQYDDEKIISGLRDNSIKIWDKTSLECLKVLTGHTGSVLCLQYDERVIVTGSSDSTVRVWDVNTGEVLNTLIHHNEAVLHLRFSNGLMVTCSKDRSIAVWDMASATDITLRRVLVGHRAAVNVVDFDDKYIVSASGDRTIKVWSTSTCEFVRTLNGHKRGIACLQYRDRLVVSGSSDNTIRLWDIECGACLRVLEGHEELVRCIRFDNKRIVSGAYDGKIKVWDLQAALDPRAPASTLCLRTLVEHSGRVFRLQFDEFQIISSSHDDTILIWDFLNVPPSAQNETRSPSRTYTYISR

Compound: CC1Cc2ccccc2N1C(=O)C1CCCN(C1)C(=O)CCl (mixture of isomers) [TRIM25 ligand 11 (diastereomer mixture)]
Assay: probe-labelled cysteine peptide fold change vs DMSO (competition) (log2 fold change); higher = less target engagement (more negative = stronger competition)
Conditions: THP-1, incubation time: 4 h
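Also: competitive chemoproteomic profiling in live THP-1 cells with an iodoacetamide desthiobiotin (IA-DTB) probe, comparing probe-labelled peptide intensities in compound-treated cells against DMSO-treated controls.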

Target | probe-labelled cysteine peptide fold change (10 µM) | probe-labelled cysteine peptide fold change (50 µM)
FERMT3_Q86UX7_194_GMPAHFSDSAQTEACYHMLSRPQPPPDPLLLQR (UniProt Q86UX7) | -0.196 | -0.49
FARSB_Q9NSD9_76_IDVPANRYDLLCLEGLVR (UniProt Q9NSD9) | -0.137 | -0.0292
FBP1_P09467_282_LLYECNPMAYVMEK (UniProt P09467) | 0.0116 | -0.145
FCHO1_O14526_113_CKEEVVSTLDAVQVLSGVSQLLPK (UniProt O14526) | -0.295 | 0.228
FAM98C_Q17RN3_92_ELHCPDR (UniProt Q17RN3) | -0.0843 | -0.0717
FBXL12_Q9NXK8_134_TLELHSCEISMAWLHK (UniProt Q9NXK8) | 0.109 | 0.00204
FAM206A_Q9NX38_37_FCEDHCILQHSNR (UniProt Q9NX38) | -0.0207 | 0.109
FBN2_P35556_2453_DIDECK (UniProt P35556) | -0.0175 | 0.168
FAM160A2_Q8N612_258_YIADHSYFCPVLATGLSALYSSLPR (UniProt Q8N612) | -0.211 | -0.106
FBXL15_Q9H469_255_HCHHVAESSLSR (UniProt Q9H469) | -0.146 | 0.173
FDXR_P22570_152_ALEIPGEELPGVCSAR (UniProt P22570) | 0.0997 | -0.114
FERMT2_Q96AC1_426_GCEVTPDVNISGQK (UniProt Q96AC1) | 0.0821 | 0.17
FANCD2_Q9BXW9_729_LVSPLCLAPYFR (UniProt Q9BXW9) | -0.128 | 0.0371
FBP1_P09467_39_GTGELTQLLNSLCTAVK (UniProt P09467) | 0.342 | 0.0125
FCHSD2_O94868_354_VLNDLECHGAAVSEQSR (UniProt O94868) | 0.00661 | -0.0599
FERMT3_Q86UX7_235_CLMQQGIK (UniProt Q86UX7) | 0.0304 | 0.000276
FBXL18_Q96ME1_613_LEQPYFSANAQFFQALSQCPSLQR (UniProt Q96ME1) | 0.167 | 0.0431
FBLN1_P23142_109_CCHCCLLGR (UniProt P23142) | 0.315 | 0.223
FBXW11_Q9UKB1_393_VWSTSTCEFVR (UniProt Q9UKB1) | 0.0312 | 0.174
FBXW5_Q969U6_503_HYNICLAR (UniProt Q969U6) | 0.0392 | 0.0765

Some of the entries so far, tab-delimited:
Target	probe-labelled cysteine peptide fold change (10 µM)	probe-labelled cysteine peptide fold change (50 µM)
FARSB_Q9NSD9_76_IDVPANRYDLLCLEGLVR (UniProt Q9NSD9)	-0.137	-0.0292
FBP1_P09467_282_LLYECNPMAYVMEK (UniProt P09467)	0.0116	-0.145
FCHO1_O14526_113_CKEEVVSTLDAVQVLSGVSQLLPK (UniProt O14526)	-0.295	0.228
FAM98C_Q17RN3_92_ELHCPDR (UniProt Q17RN3)	-0.0843	-0.0717
FBXL12_Q9NXK8_134_TLELHSCEISMAWLHK (UniProt Q9NXK8)	0.109	0.00204
